# Measured values taken from PubChem BioAssay AID590 (National Center for Advancing Translational Sciences (NCATS), 2007).
# The campaign covered roughly 59,000 compounds. About 6,500 (11%) were called active. The inconclusive results got no clear call from the source; some entries with a clear call stand among them for comparison. Rule as the data show it: active = max dye-equivalent concentration above about 10 nM; inconclusive = mostly about 1.1 nM to 9.6 nM; inactive = weaker than that.
# Assay: qHTS Assay for Spectroscopic Profiling in A350 Spectral Region
# Settings: Compound autofluorescence, 340/450 nm, Alexa 350 dye-equivalents; stronger effect = higher value
row,SMILES,max dye-equivalent concentration
1,COc1ccc2cc(C(c3nnnn3CC3CCCO3)N3CCOCC3)c(=O)[nH]c2c1 (stereo not given),active: 12 nM
2,Cc1ccc(-c2cn3c(=S)[nH]nc3s2)cc1,inactive
3,COc1cc(S(=O)(=O)NCc2ccccc2)ccc1F,inactive
4,Cc1nn(C)cc1/C=N/O,inconclusive: 2.4 nM
5,COc1ccc(C2(NC(C)=O)CCN(C(=O)c3ccco3)CC2)cc1,inactive
6,CCOC(=O)C1CCN(c2nc(-c3ccccc3)nc3c2oc2ccccc23)CC1,inconclusive: 5.3 nM
7,O=C(O)c1c[nH]c2ccc(S(=O)(=O)N3CCOCC3)cc12,inconclusive: 2.8 nM
8,Cc1nc(NCCCO)c(C#N)c2c1COC(C)(C)C2,active: 360 nM
9,CCCn1c2c(c(O)c(C(=O)NC)c1=O)CCCC2,inactive
10,NC(N)=NC(N)=Nc1ccc(C(=O)O)cc1,inactive
11,CC1=C(C(=O)Nc2ccc(Cl)cc2)C(c2cccs2)n2nnnc2N1 (stereo not given),inconclusive: 2.4 nM
12,COCCn1c(C)cc(C(=O)COc2nc3ccccc3nc2C)c1C,inconclusive: 2.3 nM
13,COCCNC(=O)CNS(=O)(=O)c1ccc2nc(C)sc2c1,inactive
14,CCOC(=O)CNC(=O)CSc1ncnc2c1cnn2Cc1ccccc1,inconclusive: 1.8 nM
15,O=C(Nc1ccc2c(c1)OCO2)N1CCN(C(=O)C2CCCO2)CC1 (stereo not given),inconclusive: 4.4 nM
16,O=C(N1CCOCC1)C12CC3CC(C1)CC(C(=O)N1CCOCC1)(C3)C2,inconclusive: 1.4 nM
17,O=C(Nc1ccccc1F)c1ccc(S(=O)(=O)NCC2CCCO2)cc1 (stereo not given),inconclusive: 1.5 nM
18,CC(=O)CSc1ncnc2nc[nH]c12,inconclusive: 1.8 nM
19,O=C(NCc1cccnc1)NC1(C(F)(F)F)Oc2ccccc2O1,active: 14 nM
20,COc1ccc2nc(N3CCCCC3)c(C#N)cc2c1,inconclusive: 9.5 nM

# Structures listed so far that contain a carbonyl joined to an NH by a bond outside any ring (8):
row,SMILES,max dye-equivalent concentration
5,COc1ccc(C2(NC(C)=O)CCN(C(=O)c3ccco3)CC2)cc1,inactive
9,CCCn1c2c(c(O)c(C(=O)NC)c1=O)CCCC2,inactive
11,CC1=C(C(=O)Nc2ccc(Cl)cc2)C(c2cccs2)n2nnnc2N1 (stereo not given),inconclusive: 2.4 nM
13,COCCNC(=O)CNS(=O)(=O)c1ccc2nc(C)sc2c1,inactive
14,CCOC(=O)CNC(=O)CSc1ncnc2c1cnn2Cc1ccccc1,inconclusive: 1.8 nM
15,O=C(Nc1ccc2c(c1)OCO2)N1CCN(C(=O)C2CCCO2)CC1 (stereo not given),inconclusive: 4.4 nM
17,O=C(Nc1ccccc1F)c1ccc(S(=O)(=O)NCC2CCCO2)cc1 (stereo not given),inconclusive: 1.5 nM
19,O=C(NCc1cccnc1)NC1(C(F)(F)F)Oc2ccccc2O1,active: 14 nM

# Continued:

row,SMILES,max dye-equivalent concentration
1,O=C(NCCO)c1c(O)c2cccc3c2n(c1=O)CC3,active: 26 nM
2,CC1(C)CC(=O)c2cc(C(=O)NCc3ccco3)c(=O)n(-c3ccc(Cl)cc3)c2C1,inconclusive: 1.5 nM
3,O=S(=O)(O)c1ccc(NN(c2c(O)ccc3ccccc23)S(=O)(=O)O)cc1,inconclusive: 4.1 nM
4,Cc1nc2nc(-c3ccco3)[nH]n2c(=O)c1Cc1ccccc1,inconclusive: 2 nM
5,OC(COc1ccc2ccccc2c1Cl)CN1CCOCC1 (stereo not given),inconclusive: 2.2 nM
6,CCOC(=O)COc1ccc(C2NC(C(=O)O)CS2)cc1 (stereo not given),inconclusive: 4 nM
7,COc1ccccc1C1C(C(=O)c2sc(C)nc2C)=C(O)C(=O)N1CCN1CCOCC1 (stereo not given),inconclusive: 2.1 nM
8,CCOC(=O)c1ccc(N2C(=O)CC(N3CC(C)OC(C)C3)C2=O)cc1 (stereo not given),inconclusive: 1.3 nM
9,CCCCN(CC)S(=O)(=O)N1CCC(C(=O)NCCCN2CCOCC2)CC1,inconclusive: 1.2 nM
10,O=C(CSc1ccc(Cl)cc1)OCc1nnc(-c2ccccc2)o1,inactive
11,COc1cccc2c(C)nc(Nc3nc(CSc4nnc(C)s4)cc(=O)[nH]3)nc12,inconclusive: 2.9 nM
12,COC(=O)c1ccc(COC(=O)C23CC4CC(CC(O)(C4)C2)C3)o1,inconclusive: 1.3 nM
13,O=C(CN1C(=O)CNC1=O)Nc1cccc(C(F)(F)F)c1,inconclusive: 5.4 nM
14,COc1ccccc1NC(=O)CCN1CCN(CCC(=O)Nc2ccccc2OC)CC1,inconclusive: 5.7 nM
15,CCn1c(SCC(=O)Nc2cc(C)on2)nnc1-c1ccc(S(=O)(=O)N2CCCC2)cc1,inactive
16,CC12CCC(C(=O)N(CCC#N)CCC#N)(CC1=O)C2(C)C (stereo not given),inconclusive: 2.6 nM
17,O=C(c1cccc(Cl)c1)N1CCN(C(=O)c2ccccc2F)CC1,inconclusive: 2.8 nM
18,Cc1ccc(-c2nn3c(-c4ccco4)nnc3c3ccccc23)cc1S(=O)(=O)N1CCOCC1,inactive
19,COc1ccc(-n2c(=O)c(-c3cccs3)nc3cnc(N4CCNCC4)nc32)cc1,active: 12 nM
20,O=C(Nc1cc(C(=O)N2CCOCC2)ccc1N1CCCC1)c1cccs1,inconclusive: 4.7 nM

row,SMILES,max dye-equivalent concentration
1,CCCc1cc(=O)[nH]c(Nc2ccc(N3CCCCC3)cc2)n1,inconclusive: 4 nM
2,CCS(=O)(=O)c1ccc(NC(=O)c2ccccc2Cl)c(O)c1,inactive
3,O=c1[nH]c(CN2CCN(c3ccccc3Cl)CC2)nc2ccsc12,inconclusive: 6.4 nM
4,Nc1ccc(N=Nc2ccccc2)c(N)n1,inconclusive: 3.8 nM
5,C/C(=C\c1ccc(Cl)cc1)C(C)(C)C(=O)O,inactive
6,CCN(CC)C(=O)N1CCN(C)CC1,inactive
7,CCn1c(Cc2cccs2)nnc1SCC(=O)Nc1ccc(OC)c(OC)c1,inconclusive: 8.4 nM
8,Cc1ccc2nnc(Cl)n2n1,inactive
9,CCn1c(N)c(C(N)=O)sc1=S,inconclusive: 1.2 nM
10,CC(=O)Nc1c(C#N)c(C(C)(C)C)cn1C,inconclusive: 4.3 nM
11,COc1ccccc1CNS(=O)(=O)c1ccc2[nH]cc(C(=O)O)c(=O)c2c1,inconclusive: 2.7 nM
12,O=C(CCN1C(=O)c2ccccc2C1=O)Nc1ccc(F)cc1F,inconclusive: 8.9 nM
13,Cc1ccc(N2C(=O)C3C4C=CC(C4)C3C2=O)cc1C (stereo not given),inconclusive: 2.2 nM
14,Cc1ccc(S(=O)(=O)N2CCC(C(=O)O)(c3ccccc3)CC2)cc1,inactive
15,O=c1[nH]c(CSc2nc3ccccc3o2)nc2c1cnn2-c1ccccc1,inconclusive: 6.3 nM
16,CCc1nnc(NC(=O)CSc2nc3c(cc2C#N)CCCC3)s1,inconclusive: 7.5 nM
17,COc1ccc(C2NC(=O)c3ccccc3O2)c(OC)c1OC (stereo not given),inconclusive: 5.3 nM
18,CCOc1ccc(CCNS(=O)(=O)c2cccc3nsnc23)cc1OCC,inactive
19,COc1ccc(CCC(=O)NC2=NCCS2)cc1OC,inactive
20,O=C(Nc1nc2ccc(S(=O)(=O)N3CCCCC3)cc2s1)c1ccncc1,inconclusive: 1.7 nM

# Another view of some results above:
row	SMILES	max dye-equivalent concentration
14	Cc1ccc(S(=O)(=O)N2CCC(C(=O)O)(c3ccccc3)CC2)cc1	inactive
19	COc1ccc(CCC(=O)NC2=NCCS2)cc1OC	inactive
